In patent publication US20260272797A1, “FRAGRANCE COMPOSITION” (GIVAUDAN SA, priority 2023, published 2026):

Assay: Odour intensity of fragrance ingredient (olfactometry / typical dosage) used for grouping
Settings: Table 3; odour intensity of ingredient (Low/Medium/High)

Row | Molecule | Ingredient intensity
1 | CC(=O)OC1CCCCC1C(C)(C)C (stereo not drawn) [2-(tert-butyl)cyclohexyl acetate] | Low
2 | CC(=O)C(C)O (stereo not drawn) [3-hydroxybutan-2-one] | High
3 | CCC(O)COC1CCCCC1C(C)(C)C (stereo not drawn) [1-((2-(tert-butyl)cyclohexyl)oxy)butan-2-ol] | Medium
4 | C/C=C/C(=O)/C(C)=C(\C)C(C)C [(2E,5E)-5,6,7-trimethylocta-2,5-dien-4-one] | High
5 | CC(C=O)Cc1ccc(C(C)(C)C)cc1 (stereo not drawn) [3-(4-(tert-butyl)phenyl)-2-methylpropanal] | Low
6 | COC(=O)c1ccccc1N [methyl 2-aminobenzoate] | Medium
7 | CCCCCC1(C)CCC(C)(C)C1=O (stereo not drawn) [2,2,5-trimethyl-5-pentylcyclopentanone] | High
8 | C=CCc1ccc(O)c(OC)c1 [4-allyl-2-methoxyphenol] | High
9 | c1ccc2[nH]ccc2c1 [1H-indole] | High
10 | CC1COCc2cc3c(cc21)C(C)(C)C(C)C3(C)C (stereo not drawn) [4,6,6,7,8,8-hexamethyl-1,3,4,6,7,8-hexahydrocyclopenta[g]isochromene] | Medium
11 | COc1ccc(C=O)cc1 [4-methoxybenzaldehyde] | Low
12 | CC(CCO)CCCC(C)(C)O (stereo not drawn) [3,7-dimethyloctane-1,7-diol] | Medium
13 | CC(=O)C1(C)CC2=C(CCCC2(C)C)CC1C (stereo not drawn) [1-(2,3,8,8-tetramethyl-1,2,3,4,5,6,7,8-octahydronaphthalen-2-yl)ethanone] | Low
14 | CC(=O)c1cc2c(cc1C)C(C)(C)C(C)CC2(C)C (stereo not drawn) [1-(3,5,5,6,8,8-hexamethyl-5,6,7,8-tetrahydronaphthalen-2-yl)ethanone] | Medium
15 | C/C=C(\CC)CCC(C)CCO (stereo not drawn) [(E)-6-ethyl-3-methyloct-6-en-1-ol] | High
16 | CC(=O)c1ccccc1 [1-phenylethanone] | High
17 | CC(=O)/C(C)=C/C1=C(C)CCCC1(C)C [(E)-3-methyl-4-(2,6,6-trimethylcyclohex-1-en-1-yl)but-3-en-2-one] | Medium
18 | CCCCCCCC1CCCC(=O)O1 (stereo not drawn) [6-heptyltetrahydro-2H-pyran-2-one] | Low
19 | C=CC(C)(O)CC/C=C(\C)CCC=C(C)C (stereo not drawn) [(E)-3,7,11-trimethyldodeca-1,6,10-trien-3-ol] | High
20 | CCCCCCC(=O)OCC [ethyl heptanoate] | High
21 | CC(CCO)CCc1ccccc1 (stereo not drawn) [3-methyl-5-phenylpentan-1-ol] | Medium
22 | CC1(C)CCC[C@]2(C)[C@H]3CCO[C@]3(C)CC[C@@H]12 [(3aR,5aS,9aS,9bR)-3a,6,6,9a-tetramethyl-2,4,5,5a,7,8,9,9b-octahydro-1H-benzo[e][1]benzofuran] | Medium
23 | CC(=O)C1CC/C=C\C(C)C(C)/C=C\C/C=C/1C (stereo not drawn) [1-((2E,5Z,9Z)-2,7,8-trimethylcyclododeca-2,5,9-trien-1-yl)ethanone] | High
24 | C/C=C/C(=O)C1C(C)=CCCC1(C)C (stereo not drawn) [(E)-1-(2,6,6-trimethylcyclohex-2-en-1-yl)but-2-en-1-one] | Medium

Row | Molecule | Ingredient intensity
25 | CCC(C)(CCCC(C)C=O)OC (stereo not drawn) [6-methoxy-2,6-dimethyloctanal] | High
26 | CC(C)c1ccc(CO)cc1 [(4-isopropylphenyl)methanol] | High
27 | CCCc1ccc(O)c(OC)c1 [2-methoxy-4-propylphenol] | High
28 | CCOc1cc(C)ccc1O [2-ethoxy-4-methylphenol] | High
29 | CC(=O)OCCC1=CCC2CC1C2(C)C (stereo not drawn) [2-(6,6-dimethylbicyclo[3.1.1]hept-2-en-2-yl)ethyl acetate] | Low
30 | CCCCCC/C=C/C(=O)OC [(E)-methyl non-2-enoate] | High
31 | CC1CCC(C(C)C)C(O)C1 (stereo not drawn) [2-isopropyl-5-methylcyclohexanol] | Medium
32 | C[C@@H]1CC[C@H]2C(C)(C)[C@H]3C[C@@]12CC1OC(C)(C)OC13C (stereo partly drawn) [(4aR,5R,7aS,9R)-Octahydro-2,2,5,8,8,9a-hexamethyl-4H-4a,9-methanoazuleno[5,6-d]-1,3-dioxole] | High
33 | CC(CC=O)CCCC(C)(C)O (stereo not drawn) [7-hydroxy-3,7-dimethyloctanal] | Medium
34 | COc1cc(C=O)ccc1OC(=O)C(C)C [4-formyl-2-methoxyphenyl 2-methylpropanoate] | High
35 | CC1(CO)CC1CC1CC2CC2(C)C1(C)C (stereo not drawn) [1-methyl-2-((1,2,2-trimethylbicyclo[3.1.0]hexan-3-yl)methyl)cyclopropyl)methanol] | High
36 | CC(=O)/C(C)=C/C1C(C)=CCCC1(C)C (stereo not drawn) [(E)-3-methyl-4-(2,6,6-trimethylcyclohex-2-en-1-yl)but-3-en-2-one] | Medium
37 | CC(C)=CCCC(C)CC=O (stereo not drawn) [3,7-dimethyloct-6-enal] | High
38 | Cc1ccc2c(c1)OCC(=O)CO2 [8-methyl-1,5-benzodioxepin-3-one] | Medium
39 | CC(C)=CCCC(C)CCO (stereo not drawn) [3,7-dimethyloct-6-en-1-ol] | Low
40 | CC(C)=CCC(C)C1CC1(C)CO (stereo not drawn) [1-methyl-2-(5-methylhex-4-en-2-yl)cyclopropylmethanol] | Low
41 | CC1C/C=C\CCCCCCCCCC(=O)C1 (stereo not drawn) [(Z)-3-methylcyclopentadec-5-enone] | Medium
42 | Cc1cc(CC(C)C)ccc1CCC=O [3-(4-(2-methylpropyl)-2-methylphenyl)propanal] | Low
43 | COc1ccc(CC(C)C=O)cc1 (stereo not drawn) [3-(4-methoxyphenyl)-2-methylpropanal] | Medium
44 | C/C=C/c1ccc(OC)cc1 [(E)-1-methoxy-4-(prop-1-en-1-yl)benzene] | Medium
45 | CC(=O)O[C@]1(C)CC[C@]23CC1C(C)(C)C2CC[C@@H]3C (stereo partly drawn) [(1S,6R,8aR)-1,4,4,6-tetramethyloctahydro-1H-5,8a-methanoazulen-6-yl acetate] | Low
46 | O=CCC/C=C1\CC2CC1[C@H]1CCC[C@@H]21 (stereo partly drawn) [(E)-4-((3aS,7aS)-hexahydro-1H-4,7-methanoinden-5(6H)-ylidene)butanal] | High
47 | CCCCOC(=O)C(C)OC(=O)CCC (stereo not drawn) [1-butoxy-1-oxopropan-2-yl butanoate] | Medium
48 | CC(C)CCCC(C)CCO (stereo not drawn) [3,7-dimethyloctan-1-ol] | High

Row | Molecule | Ingredient intensity
49 | C/C=C/C(=O)C1=C(C)CCCC1(C)C [(E)-1-(2,6,6-trimethyl-1-cyclohexenyl)but-2-en-1-one] | High
50 | CC(C)C1CCC(CO)CC1 (stereo not drawn) [(4-isopropylcyclohexyl)methanol] | Medium
51 | CCCC1(C(C)(C)C)C=CC(C)O1 (stereo not drawn) [5-tert-butyl-2-methyl-5-propyl-2H-furan] | High
52 | O=Cc1ccc2c(c1)OCO2 [benzo[d][1,3]dioxole-5-carbaldehyde] | Low
53 | C/C=C/C(=O)C1=C(C)C=CCC1(C)C [(E)-1-(2,6,6-trimethylcyclohexa-1,3-dien-1-yl)but-2-en-1-one] | High
54 | CC1=CCC(/C=C/C(C)C(C)O)C1(C)C (stereo not drawn) [(E)-3-methyl-5-(2,2,3-trimethylcyclopent-3-en-1-yl)pent-4-en-2-ol] | Medium
55 | CC(C)CCc1ccc2c(c1)OCC(=O)CO2 [7-isopentyl-2H-benzo[b][1,4]dioxepin-3(4H)-one] | High
56 | CC1C/C=C/CCCCCCCC(=O)OCC1 (stereo not drawn) [(E)-13-methyloxacyclopentadec-10-en-2-one] | Medium
57 | CCC(=O)/C=C/C1C(C)=CCCC1(C)C (stereo not drawn) [(E)-1-(2,6,6-trimethylcyclohex-2-en-1-yl)pent-1-en-3-one] | Low
58 | CC1=CC[C@H]2C(C1)C1CC2[C@@]2(C1)OC2C (stereo partly drawn) [(2R,8aS)-3′,6-dimethyl-3,4,4a,5,8,8a-hexahydro-1H-spiro[1,4-methanonaphthalene-2,2′-oxirane]] | Medium
59 | CCCCCCC1CCC(=O)O1 (stereo not drawn) [5-hexyloxolan-2-one] | Low
60 | C/C(=C\CCC=O)CCCC(C)(C)O [(4E)-9-hydroxy-5,9-dimethyl-4-decenal] | Medium
61 | O=C(OC1CCCCC1)c1ccccc1O [cyclohexyl 2-hydroxybenzoate] | Low
62 | CC1(C)[C@H]2CC[C@]1(C)C(=O)C2 [(1S,4S)-1,7,7-trimethylbicyclo[2.2.1]heptan-2-one] | High
63 | CCCCCCCC(=O)OCC [ethyl octanoate] | High
64 | CCCCCCCCCC(C)C=O (stereo not drawn) [2-methylundecanal] | Medium
65 | CC1CCC2(CCC(=O)O2)CC1 (stereo not drawn) [8-methyl-1-oxaspiro[4.5]decan-2-one] | High
66 | CCCCCCC#CC(=O)OC [methyl non-2-ynoate] | High
67 | Cc1occc(=O)c1O [3-hydroxy-2-methyl-4H-pyran-4-one] | Medium
68 | mercapto-para-menthan-3-one | High
69 | Cc1ncsc1CCO [2-(4-Methyl-1,3-thiazol-5-yl)ethanoL] | High
70 | C/C=C/c1ccc(O)c(OC)c1 [(E)-2-methoxy-4-(prop-1-en-1-yl)phenol] | High
71 | CCOC(=O)C(C)C [ethyl 2-methylpropanoate] | Medium
72 | CCOC(=O)CC1(C)OCCO1 [ethyl 2-(2-methyl-1,3-dioxolan-2-yl)acetate] | Low
